From PubChem BioAssay AID540256 (National Center for Advancing Translational Sciences (NCATS), 2011)
Screen size: about 300,000 compounds; about 3,700 (1.2%) were called active. Inconclusive means that the source gave no clear call. Such entries were picked first, then a sample of the others. Calls follow the shape of the full dose curve; tested in HEK293 cells. Potencies of inconclusive entries are doubtful fits and often do not repeat.
% is scaled to controls: 0 for no effect and ±100 for the full control effect; potency is read from the fitted curve at half-maximal effect.

Assay: qHTS for Inhibitors of binding or entry into cells for Lassa Virus; also: nearly all actives have a fitted effect of over 50% in size
Conditions: Lassa virus pseudotype entry inhibition, cell reporter; activity change, negative = inhibition: at 37.9 µM (top of the series) unless noted
For `CCn1cc(C(=O)NCc2ccccc2Cl)cn1`, the Potency was inconclusive: 14.1 µM [inhibitor, partial curve, poor fit]. For `N#CCn1nnc(-c2ccc3c(c2)OCO3)n1`, the “activity change, negative = inhibition” value was inactive: 8.1%. With `Cc1cc(NCCN2CCOCC2)n2ncc(-c3ccccc3)c2n1` the Potency was inconclusive: 6.31 µM [activator, partial curve, poor fit]. With `Cc1ccc(N=C2NC(=O)/C(=C\c3ccsc3)S2)c(C)c1` the Potency was inconclusive: 6.31 µM [inhibitor, partial curve, poor fit]. In the case of `Cc1ccc(-c2cc3nc(C)cc(C)n3n2)cc1`, the “activity change, negative = inhibition” value is reported as inactive: 1.58%. With `CN=C(Nc1cc(Cl)ccc1Cl)SC1CC(=O)N(c2ccc(C(=O)OC)cc2)C1=O` (stereo not given) the Potency was inconclusive: 11.2 µM [inhibitor, partial curve, poor fit]. In the case of `COC(CNC(=O)C(=O)Nc1ccc2c(c1)N(S(=O)(=O)c1cccs1)CCC2)OC`, the “activity change, negative = inhibition” value is reported as inactive: -21.8% [at 46.1 µM]. For `CCCCOc1ccc(CNC(=O)Cc2ccc(NC(=O)N3CCSc4ncccc43)cc2)cc1`, the Potency was inconclusive: 7.94 µM [inhibitor, partial curve, poor fit]. With `O=C(COC(=O)c1c(F)cccc1Cl)NCC1CCCCC1` the Potency was inconclusive: 12.6 µM [activator, single point]. With `O=C(CSC1=Nc2ccccc2N=C(c2ccc(F)cc2)C1)NCc1ccccc1Cl` the “activity change, negative = inhibition” value was inactive: -20.7% [at 46.1 µM]. With `CN1C(=O)c2ccccc2C(C(=O)NCc2ccco2)C1c1c[nH]c2ccccc12` (stereo not given) the Potency was inconclusive: 7.94 µM [inhibitor, partial curve, poor fit]. With `CCCn1c(=O)[nH]c(=O)c2[nH]cnc21` the Potency was inconclusive: 20.6 µM [activator, partial curve, poor fit]. In the case of `Cc1cc(NC(=O)c2ccco2)ncc1NC(=O)Cc1ccccc1`, the “activity change, negative = inhibition” value is reported as inactive: 25.5%. With `CCN1CCN(c2cc3nc(C)n(Cc4ccccc4)c(=O)c3cc2NC(=O)c2ccccc2F)CC1` the Potency was inconclusive: 35.5 µM [inhibitor, single point]. In the case of `COc1ccc(-c2[nH]c3ccccc3c2SCCNC(=O)c2ccc(S(=O)(=O)N(C)C)cc2)cc1`, the Potency is reported as inconclusive: 12.6 µM [inhibitor, single point]. In the case of `CCn1c(CNc2ccc(Cl)cc2)nnc1SCC(=O)NCc1ccccc1`, the Potency is reported as inconclusive: 5.17 µM [inhibitor, partial curve, poor fit]. In the case of `COc1ccccc1NC(=O)c1cnc(Nc2ccccc2OC)c2ccccc12`, the Potency is reported as inconclusive: 0.562 µM [inhibitor, full curve]. With `COc1ccc(S(=O)(=O)NCC(c2ccc(N(C)C)cc2)N2CCOCC2)cc1` (stereo not given) the Potency was inconclusive: 14.1 µM [inhibitor, partial curve, poor fit]. With `O=C(O)CCC(=O)Nc1ccccc1C(=O)N1CCN(c2ccc(Cl)cc2)CC1` the Potency was inconclusive: 0.562 µM [inhibitor, full curve, poor fit]. For `C/C(=N/OC(=O)c1c(-c2ccccc2Cl)noc1C)c1cnccn1`, the Potency was inconclusive: 3.16 µM [inhibitor, single point]. In the case of `COc1ccc(CSCC(=O)N/N=C/c2ccccc2O)cc1`, the Potency is reported as inconclusive: 8.91 µM [inhibitor, partial curve]. In the case of `COc1cc2c(cc1OC)-c1cc(Nc3ccc(N(C)C)cc3)nc(=O)n1CC2`, the Potency is reported as inconclusive: 2.24 µM [inhibitor, partial curve, poor fit]. In the case of `COc1ccc(C(=O)/C=C/C(=O)N(CC(=O)NC2CCCCC2)Cc2ccccc2)c(O)c1`, the Potency is reported as active: 3.98 µM. For `N#Cc1ccccc1Sc1ccccc1C(=O)OCC(=O)NC12CC3CC(CC(C3)C1)C2`, the Potency was inconclusive: 23.1 µM [inhibitor, single point]. In the case of `CCC(C)NS(=O)(=O)c1ccc(NC(=O)CNCc2cccs2)cc1` (stereo not given), the “activity change, negative = inhibition” value is reported as inactive: -18.8% [at 46.1 µM]. In the case of `COc1cc(/C=N/NC(=S)Nc2cccc(S(=O)(=O)N(C)C)c2)ccc1O`, the Potency is reported as inconclusive: 10 µM [inhibitor, partial curve, poor fit]. For `CC(C)c1ccc(CC(NC(=O)c2ccccc2)C(=O)NCC(=O)O)cc1` (stereo not given), the Potency was inconclusive: 10 µM [activator, partial curve]. For `Cc1cccc(NC(=S)NNC(=O)c2ccc3c(c2)OCO3)c1`, the Potency was inconclusive: 0.731 µM [activator, full curve, poor fit]. For `O=[N+]([O-])c1cccc(-c2n[nH]c(=S)n2-c2ccc(Br)cc2)c1`, the “activity change, negative = inhibition” value was inactive: 16.8% [at 46.1 µM]. With `Cc1ccc(-c2onc(C)c2C)cc1S(=O)(=O)Nc1ccc(Cl)cn1` the “activity change, negative = inhibition” value was inactive: 14% [at 46.1 µM]. With `CC(C)CNc1c2c(nc3ccccc13)CCC2` the Potency was inconclusive: 11.2 µM [inhibitor, single point]. In the case of `COc1ccc(NC(=O)C2Cc3ccccc3N2C(=O)c2ccccc2)cc1OC` (stereo not given), the Potency is reported as inconclusive: 8.91 µM [inhibitor, partial curve, poor fit]. With `Cc1ccccc1C(=O)Nc1ccc(C(=O)OCc2cc(=O)n3nc(C(C)C)sc3n2)cc1` the Potency was inconclusive: 1.12 µM [inhibitor, full curve, poor fit]. With `COc1ccc(C(=S)N2CCOCC2)cc1OC(=O)c1cc([N+](=O)[O-])c(C)c([N+](=O)[O-])c1` the Potency was inconclusive: 6.31 µM [inhibitor, partial curve, poor fit]. For `CCCNC(=S)N1CCN(c2nc(-c3cccc(OC)c3)cs2)CC1`, the “activity change, negative = inhibition” value was inactive: -2.27%. For `COc1ccccc1NC(=S)N(Cc1ccco1)Cc1cc2ccc(C)c(C)c2[nH]c1=O`, the Potency was inconclusive: 16.4 µM [inhibitor, partial curve, poor fit]. In the case of `CCOc1ccc(NC(=O)Cn2cc(C(C)=O)c3ccccc32)cc1`, the Potency is reported as inconclusive: 1.26 µM [inhibitor, partial curve, poor fit]. With `CCOC(=O)C(NC(=O)c1cccc(Cl)c1)(Nc1sc2c(c1C(N)=O)CCC2)C(F)(F)F` (stereo not given) the Potency was inconclusive: 32.6 µM [inhibitor, single point]. With `COc1ccc(S(=O)(=O)N2CCN(CC(=O)Nc3ccc(Cl)c(C(F)(F)F)c3)CC2)cc1` the Potency was inconclusive: 25.1 µM [inhibitor, single point]. With `Cc1ccc(Cl)cc1NC(=O)CSc1nc2c(c(=O)[nH]1)CN(Cc1ccccc1)CC2` the “activity change, negative = inhibition” value was inactive: -8.88% [at 46.1 µM].
